Test results as given in patent US9475840B2 (UNIVERSITAT DE BARCELONA, priority 2012, dated 2016).
Some peptides are written in HELM: one residue between dots, names in brackets for other building blocks, links after the first $.

assay: general procedure: Fmoc solid-phase peptide synthesis; Fmoc-Rink amide p-MBHA resin; TBTU/DIEA; PyBOP/HOAt/DIEA; details: whole synthesis, synthesis and purification, scale of the general procedure 200 μmol

Point of comparison: “5(6)-Carboxyfluorescein-D-Pro-D-Trp-D-Val-D-Pro-D-Ser-D-Trp-D-Met-D-Pro-D-Pro-D-Arg-D-His-D-Thr-NH2”, isolated yield 4.2%. Against it:
- HELM PEPTIDE1{[dA].[CN([C@H](Cc1ccccc1)C(=O)[*:2])[*:1]].[O=C([C@@H](Cc1ccc2ccccc2c1)N[*:1])[*:2]].[dV].[dL].[dK].[dK].[dP].[dW].[dV].[dP].[dS].[dW].[dM].[dP].[dP].[dR].[dH].[dT].[am]}$$$$V2.0 (SMILES CSCC[C@@H](NC(=O)[C@@H](Cc1c[nH]c2ccccc12)NC(=O)[C@@H](CO)NC(=O)[C@H]1CCCN1C(=O)[C@H](NC(=O)[C@@H](Cc1c[nH]c2ccccc12)NC(=O)[C@H]1CCCN1C(=O)[C@@H](CCCCN)NC(=O)[C@@H](CCCCN)NC(=O)[C@@H](CC(C)C)NC(=O)[C@H](NC(=O)[C@@H](Cc1ccc2ccccc2c1)NC(=O)[C@@H](Cc1ccccc1)N(C)C(=O)[C@@H](C)N)C(C)C)C(C)C)C(=O)N1CCC[C@@H]1C(=O)N1CCC[C@@H]1C(=O)N[C@H](CCCNC(=N)N)C(=O)N[C@H](Cc1c[nH]cn1)C(=O)N[C@@H](C(N)=O)[C@H](C)O) — higher, 9.5%
- PEPTIDE1{[DOPA].[dP].[dW].[dV].[dP].[dS].[dW].[dM].[dP].[dP].[dR].[dH].[dT].[am]}$$$$V2.0 — lower, 3.8%
